# Laboratory results: patent publication US20110271408A1
# Amino acid sequences for entries named in this document (tags omitted). A change or cut given only in a name is not applied to a line headed by its entry.
# UniProt Q9CAJ0: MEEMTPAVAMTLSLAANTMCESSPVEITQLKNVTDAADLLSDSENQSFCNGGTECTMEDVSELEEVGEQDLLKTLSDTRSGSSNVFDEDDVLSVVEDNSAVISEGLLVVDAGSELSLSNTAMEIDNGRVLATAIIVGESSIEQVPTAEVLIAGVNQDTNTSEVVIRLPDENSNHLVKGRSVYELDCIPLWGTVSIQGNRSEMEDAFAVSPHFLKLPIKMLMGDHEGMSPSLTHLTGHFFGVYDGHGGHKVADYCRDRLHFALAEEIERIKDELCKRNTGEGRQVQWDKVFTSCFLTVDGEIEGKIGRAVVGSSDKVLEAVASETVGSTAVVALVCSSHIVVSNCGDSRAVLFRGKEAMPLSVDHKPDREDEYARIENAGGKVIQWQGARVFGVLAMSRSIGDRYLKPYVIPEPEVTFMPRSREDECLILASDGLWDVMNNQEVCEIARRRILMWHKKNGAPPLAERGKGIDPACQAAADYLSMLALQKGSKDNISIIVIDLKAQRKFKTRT
# UniProt O49686: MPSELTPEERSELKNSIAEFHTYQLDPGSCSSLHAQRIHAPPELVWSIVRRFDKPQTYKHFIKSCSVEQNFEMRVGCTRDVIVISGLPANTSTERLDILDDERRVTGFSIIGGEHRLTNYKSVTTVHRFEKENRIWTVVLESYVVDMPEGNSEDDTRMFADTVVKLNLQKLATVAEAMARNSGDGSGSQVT
# No constants are given. Whether binding was seen depends on the method and setting. Some binding calls cover weakened binding; strength is not graded here.
# Target: HAB1-GAL4 AD (Gal4 activation domain (AD)-PP2C fusion protein encoded by pAD-HAB1) (UniProt Q9CAJ0)
# Assay: yeast two-hybrid growth on media lacking uracil (MAV99 pAD-HAB1), 20 µM fenhexamid
row,binding,Substance
1,binds,"PYR1 mutant 27B-1 (P42S, K59R, D97N, Y120H, V163I, A172T), GAL4 BD fusion (from UniProt O49686 1-191) (receptor)"
2,binds,"PYR1 mutant 27B-2 (P42S, L44F, K59R, Y120H, V138M, M158I), GAL4 BD fusion (from UniProt O49686 1-191) (receptor)"
3,binds,"PYR1 mutant 27B-3 (P42S, K59R, Y120H, V123I, V139I, M158I), GAL4 BD fusion (from UniProt O49686 1-191) (receptor)"
4,binds,"PYR1 mutant 27B-4 (S47P, V49I, K59R, Y120H, M158I, A177T), GAL4 BD fusion (from UniProt O49686 1-191) (receptor)"
5,binds,"PYR1 mutant 27B-7 (K59R, V81M, Y120C, M158I, V163I), GAL4 BD fusion (from UniProt O49686 1-191) (receptor)"

# Target: HAB1-GAL4 AD (Gal4 activation domain (AD)-PP2C fusion protein encoded by pAD-HAB1) (UniProt Q9CAJ0)
# Assay: yeast two-hybrid X-gal staining (Y190 pAD-HAB1) on a range of fenhexamid concentrations
row,binding,Substance
1,binds,"PYR1 K59R, Y120H, M158I triple mutant, GAL4 BD fusion (pBD-PYR1) (from UniProt O49686 1-191) (receptor)"

# Target: HAB1-GAL4 AD (Gal4 activation domain (AD)-PP2C fusion protein encoded by pAD-HAB1) (UniProt Q9CAJ0)
# Assay: yeast two-hybrid growth on media lacking uracil (MAV99 pAD-HAB1), 1.5 µM fenhexamid
row,Substance,binding
1,"PYR1 mutant 27C-1 (P27L, P42S, K59R, D97N, Y120H, M158I, T173A), GAL4 BD fusion (from UniProt O49686 1-191) (receptor)",binds
2,"PYR1 mutant 27C-3 (S29N, K59R, D97N, Y120H, V163I, A72T as printed), GAL4 BD fusion (from UniProt O49686 1-191) (receptor)",binds
3,"PYR1 mutant 27C-5 (P42S, K59R, Y120H, V123I, V139I, M158I, V163I), GAL4 BD fusion (from UniProt O49686 1-191) (receptor)",binds
4,"PYR1 mutant 27C-16 (K59R, V81M, Y120H, M158I, V163I), GAL4 BD fusion (from UniProt O49686 1-191) (receptor)",binds
5,"PYR1 mutant 27C-19 (L33F, P42S, K59R, Y120H, V123I, M158I), GAL4 BD fusion (from UniProt O49686 1-191) (receptor)",binds

# More lines, now with the values ahead:
row,binding,Substance
1,binds,"PYR1 mutant 27C-2 (P42S, K59R, R74C, Y120H, M158I), GAL4 BD fusion (from UniProt O49686 1-191) (receptor)"
2,binds,"PYR1 mutant 27C-18 (E12K, K59R, V75I, D97N, Y120H, V163I, A172T), GAL4 BD fusion (from UniProt O49686 1-191) (receptor)"
3,binds,"PYR1 mutant 27C-20 (P42S, K59R, Y120H, M158I, V163I, V174I), GAL4 BD fusion (from UniProt O49686 1-191) (receptor)"
4,binds,"PYR1 mutant 27C-21 (R10Q, P42S, K59R, D97N, Y120H, V163I, A172T), GAL4 BD fusion (from UniProt O49686 1-191) (receptor)"
